According to article PMC6321462:
Results are given in words; binding and its absence hold for the method and conditions named. In cells and extracts the contact can be indirect. Some results given as binding are weak or reduced against the parent protein; the word gives no strength. Where a sequence is shown, tags or fusion partners need not be part of it.

Biological target: DRR1 wt, untagged (murine, expressed in HEK-293 cells) (mouse) (UniProt Q78TU8)
Test: cross-linking; HEK-293 cells expressing untagged DRR1 proteins incubated with 200 µM BMB (cysteine-cysteine crosslinker) or DMSO, 2 h at 4 °C in PBS with 1 mM EDTA; SDS lysates, Western blot

B1: DRR1 wt, untagged (murine, expressed in HEK-293 cells) (protein, UniProt Q78TU8 1-144)
chain: MYSEIQRERADIEGLMARPEYREWNSELIKPKKLLNPVKASRSHQELHRELLMNHKRGLGMDSKPELQRVLEHRRRNQLIKKKEEELEAKRMQCPFKQELLRRQQRLNQLENPPQRDEDHAPEFIKVRENLRRITTLTSEERAL
In the case of B1, the binding is reported as “binds”.
